From patent US20040024066A1, “Bicyclyl or heterobicyclylmethanesulfonylamino-substituted n-hydroxyformamides” (priority 2000, published 2004)
Some results were stated once for a whole list of compounds, not compound by compound. At least one compound was matched to its structure with a doubt left.

What follows are compounds tested on CD23 cleavage activity of RPMI 8866 cell plasma membranes (production of sCD23) (assay: RPMI 8866 Cell Membrane CD23 Cleavage Activity Assay (inhibition of release of soluble CD23)). Details: RPMI 8866 plasma membranes, 37° C., sCD23 measured by EIA; read-out: IC50, concentration where 50 % inhibition of production of sCD23 is observed.
Type: biochemical, human

Row | SMILES | IC50 [nM]
1 | CC(C)[C@@H](CS(=O)(=O)Cc1cnc2ccccc2c1)N(O)C=O (single isomer, unassigned) [Example 56] | ≤ 1000
2 | O=CN(O)[C@H](CS(=O)(=O)Cc1ccc2sccc2c1)c1ccc(C(=O)O)cc1 [Example 41, (S)—N-[2-(Benzo[b]thiophen-5ylmethanesulfonyl)-1-(4-carboxyphenyl)ethyl]-N-hydroxyformamide] | ≤ 1000
3 | C[C@@H](CS(=O)(=O)Cc1ccc2sccc2c1)N(O)C=O [Example 28] | ≤ 1000
4 | COc1ccc([C@@H](CS(=O)(=O)Cc2cnc3ccccc3n2)N(O)C=O)cc1 [Example 64, (S)—N-[1-(4-Methoxyphenyl)-2-(2-quinoxalylmethanesulfonyl)ethyl]-N-hydroxyformamide] | ≤ 1000
5 | Cc1cc([C@@H](CS(=O)(=O)Cc2ccc3sccc3c2)N(O)C=O)no1 [Example 34, (S)—N-[2-(Benzo[b]thiophen-5-ylmethanesulfonyl)-1-(5-methyl-isoxazol-3-yl)-ethyl]-N-hydroxyformamide] | ≤ 1000
6 | COc1ccc([C@@H](CS(=O)(=O)Cc2ccc3sccc3c2)N(O)C=O)cc1 [Example 6, (S)—N-[2-(Benzo[b]thiophen-5-yl-methanesulfonyl)-1-(4-methoxy-phenyl)-ethyl]-N-hydroxyformamide] | ≤ 1000
7 | Cc1ccsc1[C@H](CS(=O)(=O)Cc1ccc2sccc2c1)N(O)C=O [Example 18] | ≤ 1000
8 | O=CN(O)[C@@H](COCc1ccccc1)CS(=O)(=O)Cc1ccc2sccc2c1 [Example 29, (S)—N-[1-Benzyloxy-3-(benzo[b]thiophen-5-yl-methanesulfonyl)-2-propyl]-N-hydroxyformamide] | ≤ 1000
9 | O=CN(O)[C@H](CS(=O)(=O)Cc1cc2ccccc2cn1)c1ccc2c(c1)OCCCO2 [Example 63, (S)—N-[1-(3,4-Dihydro-2H-benzo[b][1,4]dioxepin-7-yl)-2-(3-isoquinolylmethanesulfonyl)ethyl]-N-hydroxyformamide] | ≤ 1000
10 | O=CN(O)[C@H](CS(=O)(=O)Cc1cc2ccccc2o1)c1ccccc1 [Example 47, (S)—N-[1-Phenyl-2-(benzo[b]furan-2-ylmethanesulfonyl)ethyl]-N-hydroxyformamide] | ≤ 1000
11 | COC(=O)c1ccc(C(CS(=O)(=O)CC2Cc3ccccc3C2)N(O)C=O)s1 (stereo in doubt) [Example 37, (S)—N-[2-(Indan-2-ylmethanesulfonyl)-1-(5-methoxycarbonylthiophen-2-yl)ethyl]-N-hydroxyformamide] | ≤ 1000
12 | CN(C)S(=O)(=O)c1ccc([C@@H](CS(=O)(=O)Cc2ccc3sccc3c2)N(O)C=O)cc1 [Example 13, (S)—N-[2-(Benzo[b]thiophen-5-ylmethanesulfonyl)-1-(4-dimethylaminosulfonylphenyl)ethyl]-N-hydroxyformamide] | ≤ 1000
13 | CC(C)CC(CS(=O)(=O)Cc1ccc2sccc2c1)N(O)C=O (centres unmarked) [Example 33, N-[1-(Benzo[b]thiophen-5-yl-methanesulfonyl)-4-methyl-2-pentyl]-N-hydroxyformamide] | ≤ 1000
14 | O=CN(O)[C@H](CS(=O)(=O)Cc1ccc2scc(F)c2c1)c1ccccc1 [Example 25, (S)—N-[1-Phenyl-2-(3-fluoro-benzo[b]thiophen-5yl-methanesulfonyl)ethyl]-N-hydroxyformamide] | ≤ 1000
15 | CCOC(=O)c1ccc([C@@H](CS(=O)(=O)Cc2ccc3sccc3c2)N(O)C=O)cc1 [Example 40, (S)—N-[2-(Benzo[b]thiophen-5-ylmethanesulfonyl)-1-(4-ethoxycarbonylphenyl)ethyl]-N-hydroxyformamide] | ≤ 1000
16 | O=CN(O)[C@H](CS(=O)(=O)Cc1ccc2ccccc2c1)c1ccccc1 [Example 45, (S)—N-[1-Phenyl-2-(2-naphthylmethanesulfonyl)ethyl]-N-hydroxyformamide] | ≤ 1000
17 | Cc1cc([C@@H](CS(=O)(=O)Cc2ccc3sccc3c2)N(O)C=O)nn1C(C)(C)C [Example 19, (S)—N-[2-(Benzo[b]thiophen-5yl-methanesulfonyl)-1-(1-t-butyl-5-methylpyrazol-3-yl)ethyl]-N-hydroxyformamide] | ≤ 1000
18 | CC(C)OC[C@@H](CS(=O)(=O)Cc1cnc2ccccc2c1)N(O)C=O [Example 57, (S)—N-[1-(3-Quinolylmethanesulfonyl)-3-isopropoxy-2-propyl]-N-hydroxyformamide] | ≤ 1000
19 | CC(C)(C)C[C@@H](CS(=O)(=O)Cc1ccc2sccc2c1)N(O)C=O [Example 31, (S)—N-[1-(Benzo[b]thiophen-5-yl-methanesulfonyl)-4,4-dimethyl-2-pentyl]-N-hydroxyformamide] | ≤ 1000
20 | CCC[C@@H](CS(=O)(=O)Cc1cnc2ccccc2c1)N(O)C=O [Example 52, (S)—N-[1-(3-Quinolylmethanesulfonyl)-2-pentyl]-N-hydroxyformamide] | ≤ 1000
21 | COc1ccc([C@@H](CS(=O)(=O)Cc2cnc3sccc3c2)N(O)C=O)cc1 [Example 59, (S)—N-[1-(4-Methoxyphenyl)-2-(5-thieno[2,3-b]pyridylmethanesulfonyl)ethyl]-N-hydroxyformamide] | ≤ 1000

Row | SMILES | IC50 [nM]
22 | COc1ccc([C@@H](CS(=O)(=O)Cc2ccc3occc3c2)N(O)C=O)cc1 [Example 27, (S)—N-[2-(Benzo[b]furan-5-yl-methanesulfonyl)-1-(4-methoxy-phenyl)-ethyl]-N-hydroxyformamide] | ≤ 1000
23 | O=CN(O)[C@H](CS(=O)(=O)Cc1ccc2ccoc2c1)c1ccccc1 [Example 44, (S)—N-[1-Phenyl-2-(benzo[b]furan-6-ylmethanesulfonyl)ethyl]-N-hydroxyformamide] | ≤ 1000
24 | O=CN(O)[C@H](CS(=O)(=O)Cc1ccc2sccc2c1)c1ccc2c(c1)NC(=O)CO2 [Example 61] | ≤ 1000
25 | O=CN(O)[C@H](CS(=O)(=O)Cc1ccc2sccc2c1)c1ccoc1 [Example 21, (S)—N-[2-(Benzo[b]thiophen-5-yl-methanesulfonyl)-1-(furan-3-yl)ethyl]-N-hydroxyformamide] | ≤ 1000
26 | O=CN(O)[C@H](CS(=O)(=O)Cc1ccc2sccc2c1)c1ccco1 [Example 20, (S)—N-[2-(Benzo[b]thiophen-5-yl-methanesulfonyl)-1-(furan-2-yl)ethyl]-N-hydroxyformamide] | ≤ 1000
27 | O=CN(O)[C@H](CS(=O)(=O)Cc1cnc2ccccc2c1)c1ccc(C(=O)O)cc1 [Example 43, (S)—N-[2-(3-Quinolinylmethanesulfonyl)-1-(4-carboxyphenyl)ethyl]-N-hydroxyformamide] | ≤ 1000
28 | CC[C@@H](CS(=O)(=O)Cc1cnc2ccccc2c1)N(O)C=O [Example 53, (S)—N-[1-(3-Quinolylmethanesulfonyl)-2-butyl]-N-hydroxyformamide] | ≤ 1000
29 | O=CN(O)C(CS(=O)(=O)Cc1ccc2sccc2c1)c1ccc(C(=O)O)s1 (stereo in doubt) [Example 36, (S)—N-[2-(Benzo[b]thiophen-5-yl-methanesulfonyl)-1-(5-carboxythiophen-2-yl)ethyl]-N-hydroxyformamide] | ≤ 1000
30 | COc1ccc([C@@H](CS(=O)(=O)Cc2cnc3ccccc3c2)N(O)C=O)cc1C(=O)O [Example 69, (S)—N-[2-(3-Quinolylmethanesulfonyl)-1-(3-carboxy-4-methoxyphenyl)ethyl]-N-hydroxyformamide] | ≤ 1000
31 | O=CN(O)[C@H](CS(=O)(=O)Cc1cnc2ccccc2c1)c1ccc2c(c1)OCCCO2 [Example 51, (S)—N-[1-(3,4-Dihydro-2H-benzo[b][1,4]dioxepin-7-yl)-2-(3-quinolylmethanesulfonyl)ethyl]-N-hydroxyformamide] | ≤ 1000
32 | COc1ccc([C@@H](CS(=O)(=O)Cc2ccc3sc(F)cc3c2)N(O)C=O)cc1 [Example 66, (S)—N-[2-(2-Fluorobenzo[b]thiophen-5-ylmethanesulfonyl)-1-(4-methoxyphenyl)ethyl]-N-hydroxyformamide] | ≤ 1000
33 | Nc1cccc([C@@H](CS(=O)(=O)CC2Cc3ccccc3C2)N(O)C=O)c1 [Example 39, (S)—N-[2-(Indan-2-ylmethanesulfonyl)-1-(3-aminophenyl)ethyl]-N-hydroxyformamide] | ≤ 1000
34 | O=CN(O)[C@H](CS(=O)(=O)Cc1ccc2ncsc2c1)c1ccccc1 [Example 46, (S)—N-[1-Phenyl-2-(benzothiazol-6-ylmethanesulfonyl)ethyl]-N-hydroxyformamide] | ≤ 1000
35 | COc1ccc([C@@H](CS(=O)(=O)Cc2cnc3ccsc3c2)N(O)C=O)cc1 [Example 60, (S)—N-[1-(4-Methoxyphenyl)-2-(6-thieno[3,2-b]pyridylmethanesulfonyl)ethyl]-N-hydroxyformamide] | ≤ 1000
36 | Cc1ccsc1C(CS(=O)(=O)Cc1cnc2ccccc2c1)N(O)C=O (stereo in doubt) [Example 67, (S)—N-[1-(3-Methylthiophen-2-yl)-2(3-quinolylmethanesulfonyl)ethyl]-N-hydroxyformamide] | ≤ 1000
37 | COc1ccc([C@@H](CS(=O)(=O)Cc2cc3ccccc3cn2)N(O)C=O)cc1 [Example 62, (S)—N-[1(4-Methoxyphenyl)-2-(3-isoquinolylmethanesulfonyl)ethyl]-N-hydroxyformamide] | ≤ 1000
38 | COC[C@@H](CS(=O)(=O)Cc1cnc2ccccc2c1)N(O)C=O [Example 55, (S)—N-[1-(3-Quinolylmethanesulfonyl)-3-methoxy-2-propyl]-N-hydroxyformamide] | ≤ 1000
39 | COC(=O)c1cc([C@@H](CS(=O)(=O)Cc2cnc3ccccc3c2)N(O)C=O)ccc1OC [Example 68, (S)—N-[2-(3-Quinolylmethanesulfonyl)-1-(3-methoxycarbonyl-4-methoxyphenyl)ethyl]-N-hydroxyformamide] | ≤ 1000
40 | Cc1ccc([C@@H](CS(=O)(=O)Cc2ccc3sc(F)cc3c2)N(O)C=O)cc1 [Example 65, (S)—N-[2-(2-Fluorobenzo[b]thiophen-5-ylmethanesulfonyl)-1-(4-methylphenyl)ethyl]-N-hydroxyformamide] | ≤ 1000
41 | CC(C)[C@@H](CS(=O)(=O)Cc1ccc2sccc2c1)N(O)C=O (single isomer, unassigned) [Example 32] | ≤ 1000
